Data taken from PubChem BioAssay AID1345084, deposited by NCATS (2018).

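Living-cell ATP in ovarian and cervical tumor lines is read as light output two days after treatment, as a measure of cell killing. Each compound was tested at five concentrations, including 0.46, 2.3 and 57.5 µM as the top dose. The number is the fitted AC50 potency, and a lower value means stronger cell killing. Calls follow an activity score built from curve class and fitted AC50: 40 to 100 is active, 1 to 39 is inconclusive, and 0 is inactive.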

Values are in µM. Every entry below has the call inconclusive. Only part of the assay is shown, chiefly results filed as inconclusive. A potency from a partial, single-point or poor curve is only a rough figure. Some entries filed as inconclusive have a full curve. The first word of each remark tells which way the curve ran; it can be opposite to the aim of the assay. Activity scores are not listed here.

SMILES	tested on / at	Potency (µM)	curve as filed
CO[C@@H]1C[C@H](O[C@H]2CC[C@@]3(C)C(CCC4C3CC[C@]3(C)[C@@H](C5=CC(=O)OC5)[C@@H](OC(C)=O)CC43O)C2)O[C@H](C)[C@@H]1O[C@H]1O[C@H](CO[C@@H]2O[C@H](CO)[C@@H](O)[C@H](O)[C@H]2O)[C@@H](O)[C@H](O)[C@H]1O (stereo partly drawn)	JEG-3	3.548	cytotoxic, single point
CO[C@@H]1C[C@H](O[C@H]2CC[C@@]3(C)C(CCC4C3CC[C@]3(C)[C@@H](C5=CC(=O)OC5)[C@@H](OC(C)=O)CC43O)C2)O[C@H](C)[C@@H]1O[C@H]1O[C@H](CO[C@@H]2O[C@H](CO)[C@@H](O)[C@H](O)[C@H]2O)[C@@H](O)[C@H](O)[C@H]1O (stereo partly drawn)	CASKI	3.548	cytotoxic, partial curve, poor fit
CCCSP(=O)(OCC)SCCC	JEG-3	15.85	rising, single point
CC1(C)CNc2cc(NC(=O)c3cccnc3NCc3ccncc3)ccc21	OV90	25.12	cytotoxic, single point
C[C@@H]1O[C@@H](O[C@@H]2[C@@H](O)[C@@H](O[C@]3(CO)O[C@H](CO)[C@@H](O)[C@@H]3OC(=O)/C=C/c3ccc(O)cc3)O[C@H](CO)[C@H]2OC(=O)/C=C/c2ccc(O)cc2)[C@H](O)[C@H](O)[C@H]1O[C@@H]1O[C@@H](C)[C@H](O[C@@H]2OC[C@](O)(CO)[C@H]2O)[C@@H](O)[C@H]1O	SKOV3	11.22	rising, single point
COc1ccc(CCC(=O)c2c(O)cc(O[C@@H]3O[C@H](CO)[C@@H](O)[C@H](O)[C@H]3O[C@@H]3O[C@@H](C)[C@H](O)[C@@H](O)[C@H]3O)cc2O)cc1O	OV90	1.122	cytotoxic, single point
O=C1OC(c2ccc(O)cc2)(c2ccc(O)cc2)c2ccccc21	SKOV3	0.4467	rising, full curve
OCC1OC(Oc2cc(O)cc(/C=C/c3ccc(OC4OC(CO)C(O)C(O)C4O)cc3O)c2)C(O)C(O)C1O (stereo not drawn)	SKOV3	17.78	cytotoxic, single point
O=C(Nc1nc2ccccc2n1CCc1ccccc1)c1ccccc1	JEG-3	14.13	cytotoxic, partial curve
O=C(Nc1nc2ccccc2n1CCc1ccccc1)c1ccccc1	Hek293T; control line for the selectivity index	19.95	cytotoxic, single point
COc1cc2c(Oc3ccc4[nH]c(C)cc4c3F)ncnc2cc1OCCCN1CCCC1	CASKI	11.22	cytotoxic, partial curve, poor fit
COc1cc2c(Oc3ccc4[nH]c(C)cc4c3F)ncnc2cc1OCCCN1CCCC1	C33A	39.81	cytotoxic, single point
COc1cc2c(Oc3ccc4[nH]c(C)cc4c3F)ncnc2cc1OCCCN1CCCC1	CAOV3	22.39	cytotoxic, partial curve, poor fit
CO[C@H]1[C@@H](O)[C@@H](C)O[C@@H](O[C@@H]2C=C3C(OC(C)=O)CC4(O)C(CC[C@]5(C)[C@@H](C6=CC(=O)OC6)CC[C@]45O)[C@@]3(C)CC2)[C@@H]1O (stereo partly drawn)	JEG-3	0.7079	cytotoxic, partial curve, poor fit
C[C@@H]1CCN(C(=O)N2CCCC2)C[C@@H]1N(C)c1ncnc2[nH]ccc12	Tov-21-G	39.81	cytotoxic, single point
CSCC1OC(n2cnc3c(N)ncnc32)C(O)C1O (stereo not drawn)	SKOV3	11.22	rising, partial curve, poor fit
COc1cc(OC)cc(C(=O)Nc2ccc(Cl)c(-c3nc4ccc(N(C)C)cc4[nH]3)c2)c1	OV90	39.81	cytotoxic, single point
COc1cc(OC)cc(C(=O)Nc2ccc(Cl)c(-c3nc4ccc(N(C)C)cc4[nH]3)c2)c1	Hek293T; control line for the selectivity index	25.12	cytotoxic, single point
Cn1c(=O)cc(N2CCCC(N)C2)n(Cc2cc(F)ccc2C#N)c1=O (stereo not drawn)	CAOV3	39.81	rising, single point
Cn1c(=O)cc(N2CCCC(N)C2)n(Cc2cc(F)ccc2C#N)c1=O (stereo not drawn)	SKOV3	3.162	rising, single point
Cc1ccc(-c2cn3c4c(sc3n2)CCCC4)cc1	OV90	6.31	cytotoxic, partial curve, poor fit
Cc1ccc(-c2cn3c4c(sc3n2)CCCC4)cc1	PA-1	12.59	cytotoxic, partial curve, poor fit
Cc1ccc(-c2cn3c4c(sc3n2)CCCC4)cc1	C33A	17.78	cytotoxic, partial curve, poor fit
NC(=O)C(O[C@@H]1O[C@H](CO[C@@H]2O[C@H](CO)[C@@H](O)[C@H](O)[C@H]2O)[C@@H](O)[C@H](O)[C@H]1O)c1ccccc1 (stereo partly drawn)	SKOV3	4.467	-
O=C1CCCc2c(O)cccc21	SKOV3	7.08	cytotoxic, single point
O=C1CCCc2c(O)cccc21	HeLa	35.48	cytotoxic, single point
O=C1CCCc2c(O)cccc21	OV90	7.08	cytotoxic, single point
CN1CCC(N(Cc2ccccc2)c2ccccc2)CC1	OV90	8.912	cytotoxic, full curve
CCn1cc(C(=O)O)c(=O)c2cc(F)c(N3CCNCC3)cc21	C33A	22.39	rising, partial curve, poor fit
CCCCC1CCN(CCCN2C(=O)CCc3ccccc32)CC1	PA-1	2.512	cytotoxic, full curve
C[C@H](CN1CCOCC1)C(C(=O)N1CCCC1)(c1ccccc1)c1ccccc1	OV90	1.413	cytotoxic, single point
CCc1cc(OC)c(C[C@H](C)N)cc1OC	OV90	100	cytotoxic, single point
CCCC(CCC)C(=O)O	SKOV3	39.81	cytotoxic, single point
CCCC(C)C1(CC)C(=O)N=C(S)NC1=O (stereo not drawn)	OV90	11.22	cytotoxic, partial curve, poor fit
O=C(Nc1cccc(C2=NCCN2)c1)Nc1cccc(C2=NCCN2)c1	Tov-21-G	2.512	rising, partial curve, poor fit
NC1CCN(c2cccc(Cl)n2)CC1	PA-1	22.39	rising, partial curve, poor fit
COc1c2c(c(C)c3c1C(=O)OC3)OC1(C)CC(O)C34OC(OC)(CC(OC(C)=O)C3(C)C1C2)OC4(C)C (stereo not drawn)	CAOV3	17.78	rising, single point
C=C1C(=O)OC2C1CCC1(C)C(O)CC=C(C)C21 (stereo not drawn)	Tov-21-G	39.81	cytotoxic, partial curve, poor fit
CC(C)C1NC(=O)CNC(=O)C2CCCN2C(=O)C(Cc2c[nH]c3ccccc23)NC(=O)CNC(=O)C(C(O)c2ccc(O)cc2)NC(=O)CNC1=O (stereo not drawn)	SKOV3	0.0501	rising, full curve, poor fit
CNC(=O)N1N=C(c2ccc(N)cc2)c2cc3c(cc2CC1C)OCO3 (stereo not drawn)	CASKI	5.012	cytotoxic, full curve, poor fit
CNC(=O)N1N=C(c2ccc(N)cc2)c2cc3c(cc2CC1C)OCO3 (stereo not drawn)	CAOV3	12.59	cytotoxic, single point
CNC(=O)N1N=C(c2ccc(N)cc2)c2cc3c(cc2CC1C)OCO3 (stereo not drawn)	Hek293T; control line for the selectivity index	28.18	cytotoxic, single point
CNC(=O)N1N=C(c2ccc(N)cc2)c2cc3c(cc2CC1C)OCO3 (stereo not drawn)	OV90	35.48	cytotoxic, partial curve, poor fit
CNC(=O)N1N=C(c2ccc(N)cc2)c2cc3c(cc2CC1C)OCO3 (stereo not drawn)	HeLa	28.18	cytotoxic, single point
CCO[C@H]1O[C@@H]2OC3(C)CC[C@H]4[C@H](C)CC[C@@H]([C@H]1C)[C@@]24OO3	Hek293T; control line for the selectivity index	14.13	cytotoxic, partial curve, poor fit
O=C(c1ccc(/C=C/c2n[nH]c3ccccc23)cc1)N1CCNCC1	JEG-3	28.18	cytotoxic, single point

The first 3 entries again:

SMILES,tested on / at,Potency (µM),curve as filed
CO[C@@H]1C[C@H](O[C@H]2CC[C@@]3(C)C(CCC4C3CC[C@]3(C)[C@@H](C5=CC(=O)OC5)[C@@H](OC(C)=O)CC43O)C2)O[C@H](C)[C@@H]1O[C@H]1O[C@H](CO[C@@H]2O[C@H](CO)[C@@H](O)[C@H](O)[C@H]2O)[C@@H](O)[C@H](O)[C@H]1O (stereo partly drawn),JEG-3,3.548,"cytotoxic, single point"
CO[C@@H]1C[C@H](O[C@H]2CC[C@@]3(C)C(CCC4C3CC[C@]3(C)[C@@H](C5=CC(=O)OC5)[C@@H](OC(C)=O)CC43O)C2)O[C@H](C)[C@@H]1O[C@H]1O[C@H](CO[C@@H]2O[C@H](CO)[C@@H](O)[C@H](O)[C@H]2O)[C@@H](O)[C@H](O)[C@H]1O (stereo partly drawn),CASKI,3.548,"cytotoxic, partial curve, poor fit"
CCCSP(=O)(OCC)SCCC,JEG-3,15.85,"rising, single point"